Reference: publication PMC10929182
Read-outs that look alike come from different tables or passages of the source. No constants are given. Whether binding was seen depends on the method and setting. Binding seen in cells or lysates may run through a third protein. Some entries that bind do so weakly or less than the wild type. One block for each molecule: values may come before it.

The chains behind the UniProt entries cited, without tags or fusion partners.
UniProt P09874: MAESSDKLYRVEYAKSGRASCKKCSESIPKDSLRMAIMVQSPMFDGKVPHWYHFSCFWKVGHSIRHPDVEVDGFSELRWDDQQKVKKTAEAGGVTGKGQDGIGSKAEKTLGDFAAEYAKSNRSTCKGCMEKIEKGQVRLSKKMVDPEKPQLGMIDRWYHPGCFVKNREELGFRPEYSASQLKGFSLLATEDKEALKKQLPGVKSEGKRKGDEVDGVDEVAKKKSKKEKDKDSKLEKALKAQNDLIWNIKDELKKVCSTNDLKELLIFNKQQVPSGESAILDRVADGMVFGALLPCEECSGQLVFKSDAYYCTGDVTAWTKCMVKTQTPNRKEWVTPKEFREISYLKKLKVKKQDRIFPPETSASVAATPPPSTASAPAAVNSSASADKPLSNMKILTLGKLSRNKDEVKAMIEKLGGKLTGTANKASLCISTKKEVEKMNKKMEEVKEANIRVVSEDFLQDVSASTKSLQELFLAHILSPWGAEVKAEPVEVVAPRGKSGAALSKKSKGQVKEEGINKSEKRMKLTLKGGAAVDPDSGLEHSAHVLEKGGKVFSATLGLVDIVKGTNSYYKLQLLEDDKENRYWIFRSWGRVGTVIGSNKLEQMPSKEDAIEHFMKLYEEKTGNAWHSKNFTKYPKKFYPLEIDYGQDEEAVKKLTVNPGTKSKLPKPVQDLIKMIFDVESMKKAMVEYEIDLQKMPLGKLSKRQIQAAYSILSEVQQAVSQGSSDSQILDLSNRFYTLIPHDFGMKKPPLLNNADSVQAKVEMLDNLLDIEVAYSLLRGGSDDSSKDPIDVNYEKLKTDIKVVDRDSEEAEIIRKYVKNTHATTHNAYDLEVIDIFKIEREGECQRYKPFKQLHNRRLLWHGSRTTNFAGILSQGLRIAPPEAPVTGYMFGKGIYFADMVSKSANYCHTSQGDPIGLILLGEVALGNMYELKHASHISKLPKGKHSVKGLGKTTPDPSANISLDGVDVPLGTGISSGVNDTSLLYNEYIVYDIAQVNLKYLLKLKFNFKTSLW
UniProt P27008: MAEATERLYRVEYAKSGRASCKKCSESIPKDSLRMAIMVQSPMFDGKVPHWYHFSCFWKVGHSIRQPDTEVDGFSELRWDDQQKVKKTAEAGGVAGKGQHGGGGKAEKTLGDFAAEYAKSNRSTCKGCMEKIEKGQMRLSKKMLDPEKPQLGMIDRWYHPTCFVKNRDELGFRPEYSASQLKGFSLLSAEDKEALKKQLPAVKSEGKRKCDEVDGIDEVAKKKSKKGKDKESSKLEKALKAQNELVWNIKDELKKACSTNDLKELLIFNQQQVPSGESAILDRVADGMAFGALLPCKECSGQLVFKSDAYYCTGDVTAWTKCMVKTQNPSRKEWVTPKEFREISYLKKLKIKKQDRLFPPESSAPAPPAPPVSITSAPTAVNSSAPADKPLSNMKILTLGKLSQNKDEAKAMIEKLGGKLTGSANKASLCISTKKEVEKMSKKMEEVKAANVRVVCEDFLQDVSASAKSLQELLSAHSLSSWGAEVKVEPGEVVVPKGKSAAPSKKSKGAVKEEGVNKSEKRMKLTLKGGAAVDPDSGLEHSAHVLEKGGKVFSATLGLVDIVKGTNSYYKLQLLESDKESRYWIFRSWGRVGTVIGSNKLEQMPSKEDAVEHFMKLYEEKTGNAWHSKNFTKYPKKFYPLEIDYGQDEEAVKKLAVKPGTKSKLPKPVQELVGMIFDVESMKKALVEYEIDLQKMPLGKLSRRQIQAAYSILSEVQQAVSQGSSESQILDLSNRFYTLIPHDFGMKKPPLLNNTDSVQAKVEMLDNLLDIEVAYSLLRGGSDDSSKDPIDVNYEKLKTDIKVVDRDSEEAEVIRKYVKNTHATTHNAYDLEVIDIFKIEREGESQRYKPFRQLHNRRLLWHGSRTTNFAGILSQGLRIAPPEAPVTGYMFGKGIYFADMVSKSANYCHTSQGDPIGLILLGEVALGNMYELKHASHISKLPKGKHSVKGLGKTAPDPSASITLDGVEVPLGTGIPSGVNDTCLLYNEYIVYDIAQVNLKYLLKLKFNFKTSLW
UniProt P34058: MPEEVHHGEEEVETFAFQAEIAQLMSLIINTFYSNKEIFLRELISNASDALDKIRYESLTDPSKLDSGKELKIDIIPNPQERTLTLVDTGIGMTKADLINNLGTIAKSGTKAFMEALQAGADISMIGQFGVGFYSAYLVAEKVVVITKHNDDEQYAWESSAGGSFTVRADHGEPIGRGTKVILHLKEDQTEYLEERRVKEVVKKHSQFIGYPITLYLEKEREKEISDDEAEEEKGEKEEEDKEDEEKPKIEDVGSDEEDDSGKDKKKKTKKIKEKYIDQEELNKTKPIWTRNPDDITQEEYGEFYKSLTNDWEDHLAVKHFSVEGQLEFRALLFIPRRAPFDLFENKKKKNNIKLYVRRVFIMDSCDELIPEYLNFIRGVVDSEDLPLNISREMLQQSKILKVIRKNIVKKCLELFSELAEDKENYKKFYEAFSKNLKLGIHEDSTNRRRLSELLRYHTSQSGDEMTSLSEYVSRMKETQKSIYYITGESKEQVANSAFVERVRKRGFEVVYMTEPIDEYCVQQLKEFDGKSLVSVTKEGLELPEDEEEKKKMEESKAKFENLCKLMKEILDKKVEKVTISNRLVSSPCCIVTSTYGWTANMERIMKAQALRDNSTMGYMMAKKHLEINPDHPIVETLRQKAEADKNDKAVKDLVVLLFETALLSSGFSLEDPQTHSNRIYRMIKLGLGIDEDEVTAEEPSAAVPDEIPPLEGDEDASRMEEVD
UniProt P08238: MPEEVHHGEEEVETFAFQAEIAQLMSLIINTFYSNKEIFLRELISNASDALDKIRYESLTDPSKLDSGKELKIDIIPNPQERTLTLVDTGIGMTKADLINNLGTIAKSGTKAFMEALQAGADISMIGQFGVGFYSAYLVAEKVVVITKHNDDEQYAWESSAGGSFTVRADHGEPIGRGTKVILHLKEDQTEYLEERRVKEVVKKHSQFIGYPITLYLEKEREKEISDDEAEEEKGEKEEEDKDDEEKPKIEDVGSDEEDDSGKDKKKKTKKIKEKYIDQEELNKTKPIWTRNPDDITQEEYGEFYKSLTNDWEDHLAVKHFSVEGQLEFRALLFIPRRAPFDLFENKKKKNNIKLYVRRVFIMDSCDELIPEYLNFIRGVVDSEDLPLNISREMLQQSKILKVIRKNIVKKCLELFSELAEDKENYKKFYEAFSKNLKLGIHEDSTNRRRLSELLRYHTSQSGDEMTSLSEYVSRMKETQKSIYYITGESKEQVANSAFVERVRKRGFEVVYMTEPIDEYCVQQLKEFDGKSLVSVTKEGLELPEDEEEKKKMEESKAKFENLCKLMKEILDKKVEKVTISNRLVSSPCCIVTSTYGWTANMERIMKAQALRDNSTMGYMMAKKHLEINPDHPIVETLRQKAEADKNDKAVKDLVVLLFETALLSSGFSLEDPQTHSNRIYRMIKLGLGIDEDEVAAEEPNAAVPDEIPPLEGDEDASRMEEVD

Legend:
PARP1-VC155 = PARP1-VC155 (UniProt P09874); assay: split reporter; BiFC in HEK293T cells transfected with PARP1-VC155 or HSP90-VN173 or empty vector; confocal microscopy 24-48 h after transfection
PARP1-CFP = PARP1-CFP (UniProt P09874); assay: FRET or BRET; FRET in HEK293T cells transfected with PARP1-CFP, HSP90-YFP or empty vector; confocal microscopy 24-48 h after transfection
[1] = target: Poly(ADP-Ribose) Polymerase 1 (PARP1), endogenous in neonatal rat cardiomyocytes (rat (endogenous in NRCMs)) (UniProt P27008); assay: co-IP; NRCM lysates incubated with the antibody of interest or IgG overnight at 4 °C, Protein A/G magnetic beads 2-4 h at 4 °C, western blot; cells untreated, infected with Ad-Ctrl or Ad-PARP1, or transfected with si-Ctrl or si-PARP1
[2] = target: Heat Shock Protein 90 Alpha Family Class B Member 1 (HSP90AB1), endogenous in neonatal rat cardiomyocytes (rat (endogenous in NRCMs)) (UniProt P34058); assay: as above
[3] = target: T1, Cell Division Cycle 37 (CDC37), endogenous in neonatal rat cardiomyocytes (rat (endogenous in NRCMs)) (UniProt Q63692); assay: as above
T1 sequence: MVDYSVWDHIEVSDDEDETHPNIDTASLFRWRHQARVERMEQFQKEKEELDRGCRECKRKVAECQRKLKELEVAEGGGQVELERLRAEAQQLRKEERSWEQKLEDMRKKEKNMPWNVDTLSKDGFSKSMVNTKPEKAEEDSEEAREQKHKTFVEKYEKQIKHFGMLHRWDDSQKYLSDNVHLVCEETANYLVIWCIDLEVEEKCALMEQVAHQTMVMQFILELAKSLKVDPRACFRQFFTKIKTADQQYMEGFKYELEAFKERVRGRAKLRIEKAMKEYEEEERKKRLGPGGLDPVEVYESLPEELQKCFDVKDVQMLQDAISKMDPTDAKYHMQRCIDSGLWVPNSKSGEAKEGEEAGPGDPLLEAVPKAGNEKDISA

[4] = target: Heat Shock Protein 90 Alpha Family Class B Member 1 (HSP90AB1), endogenous in neonatal rat cardiomyocytes (rat (endogenous in NRCMs)) (UniProt P34058); assay: as above; remark: listed apart in the source

- binding (PARP1-VC155): binds
Molecule: HSP90-VN173 (from UniProt P08238 1-724)

- binding (PARP1-CFP): binds
Molecule: HSP90-YFP (from UniProt P08238 1-724)

- binding [1]: binds
Molecule: Heat Shock Protein 90 Alpha Family Class B Member 1 (HSP90AB1), endogenous in neonatal rat cardiomyocytes (from UniProt P34058 1-724)

- binding [2]: binds
Molecule: Poly(ADP-Ribose) Polymerase 1 (PARP1), endogenous in neonatal rat cardiomyocytes (from UniProt P27008 1-1014)

- binding [3]: binds
- binding [4]: binds
B1: CDK4, endogenous in neonatal rat cardiomyocytes (protein, UniProt P35426 1-303)
chain: MATTRYEPVAEIGVGAYGTVYKARDPHSGHFVALKSVRVPNGGAAGGGLPVSTVREVALLRRLEAFEHPNVVRLMDVCATSRTDRDIKVTLVFEHIDQDLRTYLDKAPPPGLPVETIKDLMRQFLSGLDFLHANCIVHRDLKPENILVTSNGTVKLADFGLARIYSYQMALTPVVVTLWYRAPEVLLQSTYATPVDMWSVGCIFAEMFRRKPLFCGNSEADQLGKIFDLIGLPPEDDWPREVSLPRGAFSPRGPRPVQSVVPEMEESGAQLLLEMLTFNPLKRISAFRALQHSYLHKEESDPE

- binding [4]: binds
B2: Cell Division Cycle 37 (CDC37), endogenous in neonatal rat cardiomyocytes (protein, UniProt Q63692 1-379)
chain: MVDYSVWDHIEVSDDEDETHPNIDTASLFRWRHQARVERMEQFQKEKEELDRGCRECKRKVAECQRKLKELEVAEGGGQVELERLRAEAQQLRKEERSWEQKLEDMRKKEKNMPWNVDTLSKDGFSKSMVNTKPEKAEEDSEEAREQKHKTFVEKYEKQIKHFGMLHRWDDSQKYLSDNVHLVCEETANYLVIWCIDLEVEEKCALMEQVAHQTMVMQFILELAKSLKVDPRACFRQFFTKIKTADQQYMEGFKYELEAFKERVRGRAKLRIEKAMKEYEEEERKKRLGPGGLDPVEVYESLPEELQKCFDVKDVQMLQDAISKMDPTDAKYHMQRCIDSGLWVPNSKSGEAKEGEEAGPGDPLLEAVPKAGNEKDISA
